Values from PubChem BioAssay AID1259308 (NCATS, 2017)
This is a random part of about 59,000 deposited reagents. Over the whole deposit, about 1,510 (2.6%) are marked active. 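Calls use total luciferase alone and ignore viability, so some active siRNAs may act by altering cell number.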 Reagents against one gene are numbered here. Not all columns of the deposit are shown.

- Purpose: 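Knock-downs that increase output of a recombinant reporter protein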 (primary screen)
- Cell system: human HEK293 embryonic kidney cells stably expressing firefly luciferase (HEK-CMV-Luc2-Hygro)
- Reagent: single siRNA against human genes, 0.8 pmol siRNA per well
- Duration: 72 h
- Detection: 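Reporter luminescence and viable-cell signal on separate replicate plates, given as percent of non-targeting control and median/MAD z-scores, plus per-cell luciferase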
- Reading the numbers: total luciferase, z-score and total luciferase, % of control: higher = more reporter protein produced
- Active means: 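An siRNA counts as active if its total luciferase robust z-score exceeds 3; genes with two or more such siRNAs out of three were retested with fresh siRNAs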
- Meaning of the calls: active = raised luciferase; inactive = no rise

no.	gene	reagent no.	total luciferase, z-score	total luciferase, % of control	activity call
1	BAG4 (GeneID 9530)	1	0.543	92.7	inactive
2	BAG4 (GeneID 9530)	2	4.53	172	active
3	BAG4 (GeneID 9530)	3	0.0117	82.1	inactive
4	CHD7 (GeneID 55636)	1	0.219	86.2	inactive
5	CHD7 (GeneID 55636)	2	0.818	98.1	inactive
6	CHD7 (GeneID 55636)	3	0.0812	83.5	inactive
7	SYNJ1 (GeneID 8867)	1	-0.396	74	inactive
8	SYNJ1 (GeneID 8867)	2	-0.188	78.1	inactive
9	SYNJ1 (GeneID 8867)	3	-0.844	65.1	inactive
10	PAPOLG (GeneID 64895)	1	0.0727	83.3	inactive
11	PAPOLG (GeneID 64895)	2	2.13	124	inactive
12	PAPOLG (GeneID 64895)	3	-0.674	68.5	inactive
13	STBD1 (GeneID 8987)	1	0.348	88.8	inactive
14	STBD1 (GeneID 8987)	2	-0.145	79	inactive
15	STBD1 (GeneID 8987)	3	0.683	95.5	inactive
16	CD3E (GeneID 916)	1	2.28	127	inactive
17	CD3E (GeneID 916)	2	0.0704	83.3	inactive
18	CD3E (GeneID 916)	3	0.812	98	inactive
19	TMA16 (GeneID 55319)	1	-1.13	59.4	inactive
20	TMA16 (GeneID 55319)	2	0.273	87.3	inactive
21	TMA16 (GeneID 55319)	3	-0.697	68	inactive
22	KEL (GeneID 3792)	1	0.801	97.8	inactive
23	KEL (GeneID 3792)	2	-0.992	62.2	inactive
24	KEL (GeneID 3792)	3	-0.182	78.3	inactive
25	DHRS4L1 (GeneID 728635)	1	2.63	134	inactive
26	DHRS4L1 (GeneID 728635)	2	-0.862	64.7	inactive
27	DHRS4L1 (GeneID 728635)	3	-0.121	79.5	inactive
28	PPP2R2A (GeneID 5520)	1	-1.16	58.7	inactive
29	PPP2R2A (GeneID 5520)	2	-1.11	59.8	inactive
30	PPP2R2A (GeneID 5520)	3	-2.46	33	inactive
31	RECQL (GeneID 5965)	1	-0.0337	81.2	inactive
32	RECQL (GeneID 5965)	2	1.1	104	inactive
33	RECQL (GeneID 5965)	3	0.383	89.5	inactive
34	TEX11 (GeneID 56159)	1	-0.689	68.2	inactive
35	TEX11 (GeneID 56159)	2	-0.527	71.4	inactive
36	TEX11 (GeneID 56159)	3	-0.806	65.9	inactive
37	TRIM2 (GeneID 23321)	1	-0.183	78.2	inactive
38	TRIM2 (GeneID 23321)	2	-0.242	77.1	inactive
39	TRIM2 (GeneID 23321)	3	0.00771	82	inactive
40	LAMC2 (GeneID 3918)	1	0.572	93.3	inactive
41	LAMC2 (GeneID 3918)	2	-0.0849	80.2	inactive
42	LAMC2 (GeneID 3918)	3	1.41	110	inactive
43	RHOBTB3 (GeneID 22836)	1	-0.912	63.7	inactive
44	RHOBTB3 (GeneID 22836)	2	0.304	87.9	inactive
45	RHOBTB3 (GeneID 22836)	3	0.414	90.1	inactive
46	TMT1B (GeneID 196410)	1	0.786	97.5	inactive
47	TMT1B (GeneID 196410)	2	1.42	110	inactive
48	TMT1B (GeneID 196410)	3	1.1	104	inactive
49	KRTAP5-8 (GeneID 57830)	1	-1.07	60.6	inactive
50	KRTAP5-8 (GeneID 57830)	2	1.49	111	inactive
51	KRTAP5-8 (GeneID 57830)	3	1.38	109	inactive
52	PNPLA7 (GeneID 375775)	1	-1.39	54.2	inactive
53	PNPLA7 (GeneID 375775)	2	-0.1	79.9	inactive
54	PNPLA7 (GeneID 375775)	3	-0.387	74.2	inactive
55	TBC1D23 (GeneID 55773)	1	0.824	98.3	inactive
56	TBC1D23 (GeneID 55773)	2	0.536	92.6	inactive
57	TBC1D23 (GeneID 55773)	3	0.208	86	inactive

Hits (from the list above):
gene	reagent no.	total luciferase, z-score	total luciferase, % of control	activity call
BAG4 (GeneID 9530)	2	4.53	172	active
